These results are taken from PubChem BioAssay AID493014 (National Center for Advancing Translational Sciences (NCATS), 2011).

The nature of the test: qHTS Assay to Find Inhibitors of Chronic Active B-Cell Receptor Signaling. The note with it: ABC-DLBCL IkBa-CBG/CBR reporter, luminescence ratio (green luciferase fused to IkBa over red control in TMD8 lymphoma cells), 4 h. Put shortly:
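Concentration-response series (up to 46 uM) were applied to TMD8 dual-reporter cells for 4 h at 37C with doxycycline. Green/red ratio, after filter-overlap correction, defined %Activity; red signal alone was normalised to basal cells and zero luminescence.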

Where [1] appears, read: measured here: CBR red luminescence, cell number.
[2] abbreviates: measured here: IkBa-CBG green luminescence.

The other results are listed elsewhere or left out. Further columns of the screen follow, without active or inactive calls. Compounds called inactive in the main read-out are mostly missing here. Potencies come from curve fits of mixed quality, noted in brackets.

Consider `CCOC(=O)C1C(=O)C=C(c2cccc(NS(C)(=O)=O)c2)CC1c1ccco1` (stereo not drawn), for which the AC50 under setting [1] was 20.6 µM [falling, single point].

With `COc1cc(C(=O)NC(=S)Nc2ccc(Cc3ccncc3)cc2)cc(OC)c1OC`, the AC50 under setting [1] was 35.5 µM [falling, single point].

On to `Cc1ccc(C)n1-c1ccc(C(=O)Nc2ccccc2)cc1`, for which the AC50 under setting [1] is 16.4 µM [falling, single point].

For `CCN(c1cccc(C)c1)S(=O)(=O)c1c(C)[nH]c(=O)[nH]c1=O`, under setting [1], the AC50 is 2.31 µM [rising, full curve, poor fit].

For the compound `Cc1ccc(-n2c(C)nn(-c3ncc(C(F)(F)F)cc3Cl)c2=O)cc1`, the AC50 under setting [1] was 14.6 µM [rising, single point].

In the case of `CCC1CCCCN1C(=O)Cn1nc([N+](=O)[O-])c(Cl)c1C` (stereo not drawn), under setting [1], the AC50 is 0.112 µM [falling, full curve, poor fit].

With `COc1ccc(NC(=O)C2=Cc3ccccc3OC2)cc1`, the AC50 under setting [1] is 8.91 µM [falling, partial curve].

Consider `Cc1ccc(C)c2[nH]c(=O)c(CN(Cc3cccnc3)C(=S)NCc3ccco3)cc12`, for which the AC50 under setting [1] is 1.12 µM [rising, single point].

With `CCC(NC(=O)c1ccccc1NC(=O)c1ccccc1)C(=O)NNC(=O)CSc1nc2ccccc2o1` (stereo not drawn), under setting [1], the AC50 is 29.1 µM [falling, single point].

As for `CN1CCN(c2ccc(S(=O)(=O)N3CCCCC3)cc2NC(=O)/C=C/c2ccc(Cl)c([N+](=O)[O-])c2)CC1`, under setting [1], the AC50 was 10.3 µM [falling, partial curve, poor fit].

Turning to `O=C1Nc2ccccc2N(O)N1c1ccc(Cl)c(Cl)c1`, the AC50 under setting [1] was 12.6 µM [falling, single point].

In the case of `Cc1cc(NC(=O)c2ccc(Cl)cc2Cl)no1`, the AC50 under setting [1] was 35.5 µM [rising, single point].

Consider `Cc1cccc(N2CCN(c3ccc(NC(=O)c4ccccc4)cc3C(=O)O)CC2C)c1` (stereo not drawn), for which the AC50 under setting [1] was 0.562 µM [rising, full curve, poor fit].

As for `COc1ccc(-c2noc(CSc3nc(N)cc(=O)[nH]3)n2)cc1`, the AC50 reads like this: under setting [1], 31.6 µM [rising, single point]; under setting [2], 15.8 µM [falling, single point].

With `CN(Cc1nc(-c2ccncc2)no1)S(=O)(=O)c1ccccc1`, the AC50 under setting [1] was 14.6 µM [rising, partial curve].

With `COc1ccc(/C(N)=N/OC(=O)C2CCC(=O)N2S(=O)(=O)c2ccc(C)cc2)cc1OC` (stereo not drawn), the AC50 under setting [1] was 7.31 µM [rising, partial curve].

For the compound `Cc1[nH]c2ccccc2c1C(=O)C(=O)Nc1ccc2c(c1)OCO2`, the AC50 under setting [1] is 5.62 µM [rising, full curve, poor fit].

With `N#Cc1ccc(NC(=O)N2CCC(c3nc4c(nnn4Cc4cccc(Cl)c4)c(=O)[nH]3)CC2)cc1`, under setting [1], the AC50 was 20 µM [falling, single point].

On to `COc1ccccc1/C=C1\SC(=O)N(CCC(=O)NCCCn2ccnc2)C1=O`, for which the AC50 under setting [1] is 11.2 µM [falling, partial curve, poor fit].

For `CCCc1cc(=O)[nH]c(SCC(=O)Nc2cc(S(=O)(=O)N3CCOCC3)ccc2N(CC)CC)n1`, the AC50 under setting [1] was 0.461 µM [rising, partial curve].

Regarding `COc1cccc(-c2ncc3ccccc3c2COC(=O)c2ccc(C(F)(F)F)cc2)c1`, the AC50 under setting [1] was 13 µM [falling, partial curve].

Take `COc1ccc(C(=O)NCc2ccc(-c3nc4ccccc4s3)cc2)cc1OC`: the AC50 under setting [1] is 29.1 µM [rising, single point].

With `Cc1nc2ccccc2c2c1CC(C)S2` (stereo not drawn), the AC50 under setting [1] was 1.58 µM [rising, full curve, poor fit].

With `O=c1[nH]c(-c2cccnc2)nc2sc(-c3ccccc3)cc12`, the AC50 under setting [1] was 0.282 µM [falling, full curve].

`CCS(=O)(=O)N1CCCC(C(=O)NCc2cccc(OC)c2)C1` (stereo not drawn): the AC50 under setting [1] is 7.31 µM [rising, partial curve, poor fit].

Consider `COc1ccc(CN(C)Cc2c(O)ccc3cc(Br)ccc23)cc1OC`, for which the AC50 under setting [1] is 8.91 µM [falling, partial curve, poor fit].

With `Cc1ccc(S(=O)(=O)Nc2cccc3cccnc23)c([N+](=O)[O-])c1`, the AC50 is 5.62 µM [rising, single point] under setting [1] and 3.55 µM [falling, single point] under setting [2].

As for `Cc1ccc(S(=O)(=O)NCC(=O)OCC(=O)c2ccc(Br)s2)cc1`, the AC50 under setting [1] was 1.84 µM [falling, full curve].

Turning to `CCOC(=O)c1cc(-c2ccccc2C)n(CC2CC(c3ccc(OC)cc3)=NO2)n1` (stereo not drawn), the AC50 under setting [1] was 29.1 µM [falling, single point].

For the compound `O=C(Nc1nnc(C2=COCCO2)o1)c1cccc(C(F)(F)F)c1`, the AC50 under setting [1] is 35.5 µM [rising, single point].

Regarding `O=C(NC(=O)c1ccccc1O)c1ccc2c(c1)CCO2`, the AC50 under setting [1] was 1.26 µM [falling, full curve].

For the compound `CCN(c1ccccc1)S(=O)(=O)c1ccc2[nH]cc(C(=O)NC3CCCCC3)c(=O)c2c1`, the AC50 under setting [1] is 35.5 µM [rising, single point].

As to `N#C/C(=C\c1ccccn1)c1ccccn1`, the AC50 under setting [1] was 22.4 µM [falling, partial curve, poor fit].

In the case of `Cc1sc2nc(SCC(=O)NCc3ccco3)n(CCc3ccccc3)c(=O)c2c1C`, the AC50 under setting [1] was 6.51 µM [rising, single point].

As to `COc1cc(C(=O)Nc2nccs2)cc(OC)c1OC`, the AC50 under setting [1] was 0.13 µM [falling, full curve, poor fit].

On to `CCOc1ccc(Br)cc1S(=O)(=O)Nc1ccc(NC(=O)c2ccccc2F)cc1`, for which, under setting [1], the AC50 is 29.1 µM [rising, single point].

Consider `Cc1noc(C)c1C(=O)NCCc1ccc(Cl)cc1`, for which the AC50 is, setting by setting: under setting [1], 18.4 µM [rising, single point]; under setting [2], 16.4 µM [falling, partial curve, poor fit].

In the case of `Cc1c(C(=O)OCC(=O)NCCc2ccc(S(N)(=O)=O)cc2)oc2ccccc12`, the AC50 under setting [1] is 2.91 µM [rising, full curve, poor fit].

Consider `CCCn1nnnc1SCC(=O)N1CCCc2ccccc21`, for which the AC50 under setting [1] was 11.6 µM [rising, partial curve].

Regarding `COc1ccccc1-c1cc(C(=O)NCc2cccs2)no1`, the AC50 under setting [1] is 2 µM [falling, full curve].
